Laboratory results reported in the supplement of paper PMC12819154, “High-throughput peptide-centric local stability assay extends protein–ligand identification to membrane proteins, tissues and bacteria” (Nature Structural & Molecular Biology, 2025).
This is one part of the list. Most entries show no effect beyond the scatter of the controls.

Chains of the proteins cited; added tags and fusions are not shown. Lines headed by an entry give the natural chain unless they say otherwise; changes in a name come on top.
UniProt P37903: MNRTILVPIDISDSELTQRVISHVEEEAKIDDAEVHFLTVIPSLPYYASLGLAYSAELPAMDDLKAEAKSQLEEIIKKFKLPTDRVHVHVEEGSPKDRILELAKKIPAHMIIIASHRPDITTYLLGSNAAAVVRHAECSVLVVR
UniProt P45552: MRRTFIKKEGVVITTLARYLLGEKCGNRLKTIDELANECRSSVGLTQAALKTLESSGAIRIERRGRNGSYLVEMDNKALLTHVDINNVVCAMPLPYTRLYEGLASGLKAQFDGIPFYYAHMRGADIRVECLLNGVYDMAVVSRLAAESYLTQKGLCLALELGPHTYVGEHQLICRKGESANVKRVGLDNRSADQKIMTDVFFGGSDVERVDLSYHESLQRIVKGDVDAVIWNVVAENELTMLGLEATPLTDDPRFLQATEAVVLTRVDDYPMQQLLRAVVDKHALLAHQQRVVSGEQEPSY
UniProt P37348: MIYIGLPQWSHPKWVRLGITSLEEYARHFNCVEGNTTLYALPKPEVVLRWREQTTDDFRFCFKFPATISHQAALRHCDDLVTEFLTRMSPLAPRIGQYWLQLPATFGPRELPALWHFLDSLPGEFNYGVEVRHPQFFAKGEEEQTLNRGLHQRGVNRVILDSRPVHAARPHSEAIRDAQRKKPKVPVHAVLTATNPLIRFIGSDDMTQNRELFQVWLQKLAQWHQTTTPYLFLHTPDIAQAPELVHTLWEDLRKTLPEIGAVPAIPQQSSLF
UniProt P39830: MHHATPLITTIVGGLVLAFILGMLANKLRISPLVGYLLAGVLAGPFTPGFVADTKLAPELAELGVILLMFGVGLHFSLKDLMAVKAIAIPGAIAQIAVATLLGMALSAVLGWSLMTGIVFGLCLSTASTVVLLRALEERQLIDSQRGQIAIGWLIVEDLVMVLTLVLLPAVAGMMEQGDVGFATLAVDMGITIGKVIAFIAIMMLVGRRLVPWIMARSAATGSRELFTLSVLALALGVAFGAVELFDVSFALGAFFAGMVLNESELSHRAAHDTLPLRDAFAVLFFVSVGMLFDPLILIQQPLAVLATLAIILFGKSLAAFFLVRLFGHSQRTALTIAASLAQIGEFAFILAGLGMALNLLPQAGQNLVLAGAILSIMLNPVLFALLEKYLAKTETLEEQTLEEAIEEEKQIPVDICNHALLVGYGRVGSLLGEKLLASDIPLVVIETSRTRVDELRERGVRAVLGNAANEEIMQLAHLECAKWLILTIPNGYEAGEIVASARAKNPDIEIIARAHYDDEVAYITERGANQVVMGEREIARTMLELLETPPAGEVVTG
UniProt P39399: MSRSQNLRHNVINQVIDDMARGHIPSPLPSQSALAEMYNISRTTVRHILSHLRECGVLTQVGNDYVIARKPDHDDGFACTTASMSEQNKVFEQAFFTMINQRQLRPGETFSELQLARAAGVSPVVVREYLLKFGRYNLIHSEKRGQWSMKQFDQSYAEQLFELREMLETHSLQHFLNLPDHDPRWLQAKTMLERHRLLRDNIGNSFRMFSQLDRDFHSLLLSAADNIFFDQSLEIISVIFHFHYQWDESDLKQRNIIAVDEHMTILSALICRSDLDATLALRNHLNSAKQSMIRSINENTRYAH
UniProt P37766: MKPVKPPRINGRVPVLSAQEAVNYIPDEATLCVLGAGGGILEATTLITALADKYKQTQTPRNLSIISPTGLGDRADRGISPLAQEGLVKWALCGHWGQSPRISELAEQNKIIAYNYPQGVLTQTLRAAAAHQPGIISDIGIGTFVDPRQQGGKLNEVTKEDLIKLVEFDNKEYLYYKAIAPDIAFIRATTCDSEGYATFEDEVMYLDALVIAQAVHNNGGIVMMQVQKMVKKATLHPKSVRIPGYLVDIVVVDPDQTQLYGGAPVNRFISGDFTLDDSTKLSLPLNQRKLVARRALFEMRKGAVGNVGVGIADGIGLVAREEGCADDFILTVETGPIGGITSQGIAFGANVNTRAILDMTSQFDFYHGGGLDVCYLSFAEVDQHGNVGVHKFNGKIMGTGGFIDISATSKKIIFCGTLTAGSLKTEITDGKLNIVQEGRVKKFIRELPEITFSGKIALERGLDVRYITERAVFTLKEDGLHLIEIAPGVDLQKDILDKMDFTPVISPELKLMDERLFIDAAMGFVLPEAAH

compound: CC1(C)S[C@@H]2[C@H](NC(=O)[C@H](N)c3ccccc3)C(=O)N2[C@H]1C(=O)O [ampicillin]; assay: log2 fold change of tryptic peptide abundance, ligand vs vehicle (limited proteolysis) (log2 ratio); higher = more trypsin-susceptible (destabilized); settings: ligand concentration: 10 uM; sample: E. coli crude lysate

Target	log2 fold change
UniProt P37903 (peptide sequence: VISHVEEEAK, peptide start residue: 20)	0.113
UniProt P45552 (peptide sequence: VDLSYHESLQR, peptide start residue: 210)	0.132
UniProt P37348 (peptide sequence: FIGSDDMTQNR, peptide start residue: 200)	0.207
UniProt P39830 (peptide sequence: GANQVVMGER, peptide start residue: 528)	0.1
UniProt P39399 (peptide sequence: LLRDNIGNSFR, peptide start residue: 197)	0.232
UniProt P37766 (peptide sequence: WALCGHWGQSPR, peptide start residue: 90)	-0.513
